Experimental data: US20230382910A1, “HETEROARYL COMPOUNDS FOR THE TREATMENT OF PAIN” (VERTEX PHARMACEUTICALS INCORPORATED, priority 2022, published 2023)
Some entries share one result that the patent states for a list of compounds.

Protein sequences, listed by entry. Tags and fused reporters are not part of them. Residues count along the entry.
UniProt Q9Y5Y9, 660-890 limits assumed: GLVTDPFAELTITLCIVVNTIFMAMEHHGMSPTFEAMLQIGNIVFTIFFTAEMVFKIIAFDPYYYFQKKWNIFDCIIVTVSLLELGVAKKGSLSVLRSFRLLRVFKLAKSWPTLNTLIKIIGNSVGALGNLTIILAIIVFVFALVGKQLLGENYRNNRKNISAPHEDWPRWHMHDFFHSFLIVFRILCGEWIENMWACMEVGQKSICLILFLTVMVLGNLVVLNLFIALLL
UniProt Q9Y5Y9, 1148-1722 limits assumed: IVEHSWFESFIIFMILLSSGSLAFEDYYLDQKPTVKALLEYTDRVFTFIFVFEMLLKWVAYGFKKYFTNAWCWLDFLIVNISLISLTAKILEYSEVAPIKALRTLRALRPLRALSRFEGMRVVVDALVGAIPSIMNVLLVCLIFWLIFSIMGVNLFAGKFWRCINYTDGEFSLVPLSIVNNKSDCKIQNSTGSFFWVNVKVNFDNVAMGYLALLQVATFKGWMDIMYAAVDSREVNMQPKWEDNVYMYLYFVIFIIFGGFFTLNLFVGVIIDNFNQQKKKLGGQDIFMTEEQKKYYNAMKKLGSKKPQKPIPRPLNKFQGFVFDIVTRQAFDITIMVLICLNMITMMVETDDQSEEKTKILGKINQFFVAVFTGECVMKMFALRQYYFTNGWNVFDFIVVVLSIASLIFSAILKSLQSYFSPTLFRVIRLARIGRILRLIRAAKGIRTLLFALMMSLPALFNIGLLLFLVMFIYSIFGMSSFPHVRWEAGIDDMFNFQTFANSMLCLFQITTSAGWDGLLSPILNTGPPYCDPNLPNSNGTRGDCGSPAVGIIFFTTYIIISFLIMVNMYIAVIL
UniProt Q9Y5Y9, 126-399 limits assumed: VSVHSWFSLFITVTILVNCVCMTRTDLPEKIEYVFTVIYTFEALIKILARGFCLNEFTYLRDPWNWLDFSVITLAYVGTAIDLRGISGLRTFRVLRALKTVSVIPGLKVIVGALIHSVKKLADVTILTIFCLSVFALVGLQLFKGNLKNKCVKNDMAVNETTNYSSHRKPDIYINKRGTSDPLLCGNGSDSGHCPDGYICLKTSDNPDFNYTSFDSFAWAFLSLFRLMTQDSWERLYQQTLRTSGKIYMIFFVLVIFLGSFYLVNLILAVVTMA

Target: human NaV 1.8 (Homo sapiens, UniProt Q9Y5Y9)
Test: E-VIPR Assay Detecting and Measuring NaV Inhibition Properties
Assay type: cell-based
Conditions: HEK cells expressing a truncated form of human NaV 1.8; electrical stimulation, membrane potential FRET dyes; read-out: measured IC50 value in the E-VIPR Assay

| Structure (SMILES) | IC50 [nM] |
| --- | --- |
| COCc1c(-c2ccc(C(C)(C)C)cc2C)[nH]c2ccc(F)cc2c1=O [Compound 323, 2-(4-tert-butyl-2-methyl-phenyl)-6-fluoro-3-(methoxymethyl)-1H-quinolin-4-one] | < 500 |
| CNc1nccc2nc(-c3ccc(C(C)(C)C)cc3C)cc(O)c12 [Compound 324, 2-(4-tert-butyl-2-methyl-phenyl)-5-(methylamino)-1,6-naphthyridin-4-ol] | < 500 |
| CNC(=O)c1nccc2[nH]c(-c3cc(C)c(C(C)(C)C(F)(F)F)cc3C)cc(=O)c12 [Compound 325, 2-[2,5-dimethyl-4-(2,2,2-trifluoro-1,1-dimethyl-ethyl)phenyl]-N-methyl-4-oxo-1H-1,6-naphthyridine-5-carboxamide] | < 500 |
| Cc1cc(C(C)(C)C(F)(F)F)c(C)cc1-c1cc(=O)c2c(C(=O)N(C)C)nccc2[nH]1 [Compound 326, 2-[2,5-dimethyl-4-(2,2,2-trifluoro-1,1-dimethyl-ethyl)phenyl]-N,N-dimethyl-4-oxo-1H-1,6-naphthyridine-5-carboxamide] | < 500 |
| Cc1cc(C(C)(C)C)ccc1-c1cc(=O)c2c(C(N)=S)nccc2[nH]1 [Compound 327, 2-(4-tert-butyl-2-methyl-phenyl)-4-oxo-1H-1,6-naphthyridine-5-carbothioamide] | < 500 |
| Cc1cc(C(C)(C)C)ccc1-c1cc(=O)c2c[n+](C)ccc2[nH]1 [Compound 328, 2-(4-tert-butyl-2-methyl-phenyl)-6-methyl-1H-1,6-naphthyridin-6-ium-4-one] | ≥ 5000 |
| Cc1cc(C(C)(C)C)c(Cl)cc1-c1cc(=O)c2c(O)cncc2[nH]1 [Compound 329, 2-(4-tert-butyl-5-chloro-2-methyl-phenyl)-5-hydroxy-1H-1,7-naphthyridin-4-one] | < 500 |
| Cc1cc(C(C)(C)C)ccc1-c1cc(=O)c2cc(C#N)ccc2[nH]1 [Compound 330, 2-(4-tert-butyl-2-methyl-phenyl)-4-oxo-1H-quinoline-6-carbonitrile] | < 500 |
| Cc1cc(C(C)(C)C)c(Cl)cc1-c1cc(=O)c2c(C(N)=O)[n+]([O-])ccc2[nH]1 [Compound 331, 2-(4-tert-butyl-5-chloro-2-methyl-phenyl)-6-oxido-4-oxo-1H-1,6-naphthyridin-6-ium-5-carboxamide] | < 500 |
| Cc1cc(C(C)(C)O)ccc1-c1cc(=O)c2ccccc2[nH]1 [Compound 335, 2-[4-(1-hydroxy-1-methyl-ethyl)-2-methyl-phenyl]-1H-quinolin-4-one] | ≥ 5000 |
| CC(C)(C)c1nc(Cl)c(-c2cc(=O)c3ccccc3[nH]2)cc1Br [Compound 336, 2-(5-bromo-6-tert-butyl-2-chloro-3-pyridyl)-1H-quinolin-4-one] | < 500 |
| Cc1cc(CC(C)(C)C)ccc1-c1cc(=O)c2ccccc2[nH]1 [Compound 338, 2-[4-(2,2-dimethylpropyl)-2-methyl-phenyl]-1H-quinolin-4-one] | < 500 |
| Cc1cc(C(C)C)ccc1-c1cc(=O)c2ccccc2[nH]1 [Compound 339, 2-(4-isopropyl-2-methyl-phenyl)-1H-quinolin-4-one] | < 500 |
| Cc1cc(C(C)(C)C)c(C)cc1-c1cc(=O)c2ccncc2[nH]1 [Compound 340, 2-(4-tert-butyl-2,5-dimethyl-phenyl)-1H-1,7-naphthyridin-4-one] | < 500 |
| Cc1cc(C(C)(C)C)ccc1-c1cc(=O)c2ccncc2[nH]1 [Compound 341, 2-(4-tert-butyl-2-methyl-phenyl)-1H-1,7-naphthyridin-4-one] | < 500 |
| Cc1cc(C(C)(C)C(F)(F)F)c(C)cc1-c1cc(=O)c2ccncc2[nH]1 [Compound 342, 2-[2,5-dimethyl-4-(2,2,2-trifluoro-1,1-dimethyl-ethyl)phenyl]-1H-1,7-naphthyridin-4-one] | < 500 |
| Cc1cc(C(C)(C)C)c(Cl)cc1-c1cc(=O)c2c(C(N)=O)cccc2[nH]1 [Compound 343, 2-(4-tert-butyl-5-chloro-2-methyl-phenyl)-4-oxo-1H-quinoline-5-carboxamide] | < 500 |
